From PubChem BioAssay AID540276 (National Center for Advancing Translational Sciences (NCATS), 2011)
Values joined by “and” are separate entries in the source; they are usually repeats but may differ in a detail not shown here. Identical values can stand only once. Hit rate of the full screen: of about 300,000 compounds, about 5,400 (1.8%) were called active. This list was built around the results that the source calls inconclusive (neither active nor inactive); the mix of calls is not that of the screen. Calls follow the shape of the full dose curve; tested in HEK293 cells. Potencies beside an inconclusive call are fits to weak or partial responses and may not hold up.

Assay: qHTS for inhibitors of binding or entry into cells for Marburg Virus
Settings: Marburg virus pseudotyped entry inhibition, cell reporter; series mostly up to 37.8 µM
Potency is read from the fitted curve at half-maximal effect.

**Q.** For `C[C@]12CC[C@H](O)CC1=CCC1C2CC[C@@]2(C)C1CC[C@@H]2NC(=O)[C@@H](N)CO` (some centres not stated), which Potency is on record?
**A.** inconclusive: 15.8 µM [inhibitor, single point]

**Q.** With `O=C(c1ccc(Cl)cc1)[C@@H]1[C@@H]2C(=O)N(c3cccc4ccccc34)C(=O)[C@@H]2C2c3ccccc3C=NN21` (some centres not stated) as the molecule, how does the Potency read?
**A.** inconclusive: 29.1 µM [inhibitor, single point]

**Q.** With `COc1cc(SC)ccc1C(=O)Nc1cccc(C2OCCCO2)c1` as the molecule, how does the Potency read?
**A.** inconclusive: 3.55 µM [activator, single point]

**Q.** For `Cc1ccccc1OCCCC(=O)Nc1nccs1`, which Potency is on record?
**A.** inactive

**Q.** With `c1ccc(Nc2nc(-c3ccncc3)nc3ccccc23)cc1` as the molecule, how does the Potency read?
**A.** inconclusive: 1.78 µM [inhibitor, full curve]

**Q.** Which Potency does the source give for `O=C(NC1CCCCC1)N1CCCC(c2nc(-c3cccs3)no2)C1` (configuration not stated) here?
**A.** inconclusive: 22.4 µM [inhibitor, partial curve, poor fit]

**Q.** Which Potency does the source give for `O=C1CC(c2ccccc2)Oc2ccc(Cl)cc21` (configuration not stated) here?
**A.** inactive

**Q.** For `O=C1CC(Nc2ccc(N3CCOCC3)cc2)C(=O)N1Cc1ccccc1` (configuration not stated), which Potency is on record?
**A.** inactive

**Q.** With `Cc1ccc(OCC(=O)NC2=NCCS2)cc1` as the molecule, how does the Potency read?
**A.** inconclusive: 0.794 µM [activator, full curve, poor fit]

**Q.** For `CN(C)CCNC(=O)c1sc2nc(-c3ccccc3)cc(C(F)(F)F)c2c1N`, which Potency is on record?
**A.** active: 5.01 µM

**Q.** Which Potency does the source give for `CCOCCCNCC(=O)Nc1ccc(S(=O)(=O)NC(C)CC)cc1` (configuration not stated) here?
**A.** inconclusive: 1.12 µM [activator, full curve, poor fit]

**Q.** For `Cn1cccc1C(=O)C(=O)Nc1cc(Cl)cc(Cl)c1`, which Potency is on record?
**A.** inconclusive: 10 µM [activator, partial curve, poor fit]

**Q.** Which Potency does the source give for `CCc1ccc(NC(=O)CN2CCC(C(=O)c3ccc(OC)cc3)CC2)cc1` here?
**A.** inconclusive: 8.91 µM [inhibitor, partial curve]

**Q.** For `COc1ccc(CC(=O)Nc2nc3c(s2)CC(C)CC3)cc1` (configuration not stated), which Potency is on record?
**A.** inconclusive: 3.55 µM [activator, single point]

**Q.** With `Cc1cc2c(cc1C)N(CC(=O)N1CCCC1)C(=O)CC(c1ccccc1)=N2` as the molecule, how does the Potency read?
**A.** inactive

**Q.** Which Potency does the source give for `COc1cc(NC(=O)CSc2nc(C)cc(C)n2)cc(OC)c1OC` here?
**A.** inconclusive: 5.62 µM [inhibitor, single point]

**Q.** With `Cc1cc(Nc2ccccc2Cl)nc(-c2ccccc2O)n1` as the molecule, how does the Potency read?
**A.** inconclusive: 11.2 µM [inhibitor, single point]

**Q.** Which Potency does the source give for `CSc1ccc(Cl)c(C(=O)NNC(=O)c2cccs2)c1` here?
**A.** inactive

**Q.** With `Cn1c(CCN2CCCCC2)nc2cc(NC(=O)NC3CCCCC3)ccc21` as the molecule, how does the Potency read?
**A.** inconclusive: 35.5 µM [inhibitor, partial curve, poor fit]

**Q.** Which Potency does the source give for `O=C(COC(=O)/C=C/c1cccc(Cl)c1)NCCc1ccccc1` here?
**A.** inconclusive: 1.84 µM [inhibitor, partial curve, poor fit]

**Q.** Which Potency does the source give for `O=C(/C=C/c1ccc(Cl)cc1)N1CCN(c2ccc(Cl)cc2[N+](=O)[O-])CC1` here?
**A.** inactive

**Q.** For `O=C1N(C2CCCC2)C[C@@H]2C[C@@H](c3cccn3-c3ccccn3)N3CCC[C@@]123`, which Potency is on record?
**A.** inconclusive: 7.08 µM [inhibitor, full curve, poor fit]

**Q.** Which Potency does the source give for `Clc1cc(Br)ccc1OCCOCCOc1cccc2cccnc12` here?
**A.** inconclusive: 3.98 µM [activator, single point]

**Q.** Which Potency does the source give for `O=c1[nH]c2ccc(S(=O)(=O)N3CCCCC3)cc2o1` here?
**A.** inactive

**Q.** Which Potency does the source give for `Cc1cccc(C(=O)Oc2coc(CSc3nnc(NC(=O)C4CC4)s3)cc2=O)c1` here?
**A.** inconclusive: 1.41 µM [activator, partial curve]

**Q.** For `COc1ccc(CNC(=O)CSc2nc3ccc(N)cc3s2)cc1`, which Potency is on record?
**A.** inconclusive: 2.06 µM [activator, full curve, poor fit]

**Q.** With `Cc1ccc(Oc2ncnc3sccc23)cc1` as the molecule, how does the Potency read?
**A.** inconclusive: 35.5 µM [activator, partial curve, poor fit]

**Q.** With `COc1ccc2c(c1OC)C(=O)N1c3ccccc3COC21` (configuration not stated) as the molecule, how does the Potency read?
**A.** inconclusive: 1.26 µM [activator, full curve, poor fit]

**Q.** Which Potency does the source give for `O=C(CC(Nc1ccccc1)c1ccccc1)C1CC1` (configuration not stated) here?
**A.** inactive

**Q.** With `CCOC(=O)C1=C(C)NC(=O)C(C(N)=O)C1c1ccccc1` (configuration not stated) as the molecule, how does the Potency read?
**A.** inactive

**Q.** Which Potency does the source give for `CCCNc1nc2c(c(=O)n(C)c(=O)n2C)n1CCc1ccccc1` here?
**A.** inconclusive: 7.3 µM [inhibitor, partial curve]

**Q.** For `CC(=O)c1cccc(NC(=O)C2CC(=O)N(C3CCCC3)C2)c1` (configuration not stated), which Potency is on record?
**A.** inconclusive: 1.26 µM [inhibitor, single point]

**Q.** With `CCc1cc2c(=O)c(-c3nc4ccccc4n3C)coc2c(CN2CCN(C)CC2)c1O` as the molecule, how does the Potency read?
**A.** inconclusive: 0.398 µM [inhibitor, full curve, poor fit]

**Q.** Which Potency does the source give for `O=C(Nc1ccc(Nc2ccccc2)cc1)c1ccc(Br)o1` here?
**A.** inconclusive: 0.316 µM [activator, partial curve, poor fit]

**Q.** For `Cc1ccccc1-c1nnc(SCC(=O)Nc2cccc(C)c2C)o1`, which Potency is on record?
**A.** inactive

**Q.** With `CCCCCCCC(=O)NNC(=O)CC(=O)Nc1ccccc1C(=O)O` as the molecule, how does the Potency read?
**A.** inconclusive: 35.5 µM [activator, single point]

**Q.** With `CCCCCC(O)(c1ccc(OC)cc1)C(CN1CCOCC1)c1ccccc1` (configuration not stated) as the molecule, how does the Potency read?
**A.** inconclusive: 12.6 µM [inhibitor, partial curve, poor fit]

**Q.** With `Cc1ccc(NC(=S)NCC2CCN(C(C)c3ccccc3)C2)cc1` (configuration not stated) as the molecule, how does the Potency read?
**A.** inconclusive: 10 µM [inhibitor, partial curve, poor fit]

**Q.** With `CCOc1ccc(NC(=S)NCc2ccco2)cc1` as the molecule, how does the Potency read?
**A.** inconclusive: 31.6 µM [activator, single point]

**Q.** Which Potency does the source give for `CC1(C)Cc2c(sc3c2c(=N)n(Cc2ccco2)c(=O)n3Cc2ccccc2)CO1` here?
**A.** inactive and inconclusive: 35.5 µM [inhibitor, partial curve, poor fit]

**Q.** With `Cn1c(C(O)c2ccccc2F)nc(Cl)c1Cl` (configuration not stated) as the molecule, how does the Potency read?
**A.** inconclusive: 20.6 µM [inhibitor, partial curve, poor fit]

**Q.** Which Potency does the source give for `CC(C)c1c(C#N)c(N)nc(SCC(=O)c2cc3ccccc3oc2=O)c1C#N` here?
**A.** inconclusive: 15.8 µM [inhibitor, partial curve, poor fit]
